No constants are given. Whether binding was seen depends on the method and setting.
Biological target: NadA_(24–89) (head-only) (N. meningitidis strain 2996) (UniProt Q8KH85)
Assay: SEC-MALS; SE-HPLC/MALLS, TSK Super SW3000, RT, ~40 uM sample, 0.1 M NaH2PO4, 0.4 M (NH4)2SO4 pH 6.0; both purified

Q: For “NadA_(24–89) (head-only) (from UniProt Q8KH85 24-89) (domain or fragment)”, which binding is on record?
A: no binding

— PMC4908583
